Among the data in PubChem BioAssay AID186 (DTP/NCI, 2004) are survivor count values, retold here.

The subject of this assay is B6D2F1 mice, nontumored toxicity test, survival. Briefly: NCI In Vivo Anticancer Drug Screen. Data for tumor model Nontumored Animals (Toxicity Test) in B6D2F1 (BDF1) mice. To be noted: vehicle: saline.
The mark [1] stands for this setting: dose: 32.0 mg/kg/injection, schedule: Q01DX009 (ip).
The mark [2] stands for this setting: dose: 32.0 mg/kg/injection, schedule: Q01DX009 (oral).
Setting [3] is: dose: 64.0 mg/kg/injection, schedule: Q01DX009 (ip).
Setting [4] is: dose: 64.0 mg/kg/injection, schedule: Q01DX009 (oral).
Setting [5] is: dose: 128.0 mg/kg/injection, schedule: Q01DX009 (oral).
The mark [6] stands for this setting: dose: 128.0 mg/kg/injection, schedule: Q03HX016 (ip).

Values are animals surviving of animals treated; these mice carried no tumour. Counts of survivors are from the toxicity check (mostly the fifth day) where no day follows; animals may have died later. Schedule codes are those of the source, read here as Q, the interval in days (D) or hours (H), X, the number of doses. Some entries hold several experiments; their values stand side by side, smallest first.

On to `C[C@@H](CN1CC(=O)NC(=O)C1)N1CC(=O)NC(=O)C1`, for which the survivor count was 8 of 8 (dose: 8.0 mg/kg/injection, schedule: Q01DX009 (ip)); 7 of 7 and 8 of 8 (dose: 8.0 mg/kg/injection, schedule: Q01DX009 (oral)); 8 of 8 (dose: 8.0 mg/kg/injection, schedule: Q01DX009 (sc)); 8 of 8 (dose: 8.0 mg/kg/injection, schedule: Q03HX016 (ip)); 7 of 7 (dose: 8.0 mg/kg/injection, schedule: Q03HX024 (ip)); 7 of 7 and 8 of 8 (dose: 16.0 mg/kg/injection, schedule: Q01DX009 (ip)). For the same compound, the survivor count (dose: 16.0 mg/kg/injection, schedule: Q01DX009 (oral)) was 8 of 8; the survivor count (dose: 16.0 mg/kg/injection, schedule: Q01DX009 (sc)) is on record as 8 of 8; the survivor count (dose: 16.0 mg/kg/injection, schedule: Q03HX016 (ip)) was 8 of 8; the survivor count (dose: 16.0 mg/kg/injection, schedule: Q03HX024 (ip)) is on record as 8 of 8; the survivor count under setting [1] was 8 of 8; the survivor count under setting [2] is 6 of 8 and 8 of 8. Moreover, the survivor count is reported as 8 of 8 (dose: 32.0 mg/kg/injection, schedule: Q01DX009 (sc)); 8 of 8 (dose: 32.0 mg/kg/injection, schedule: Q03HX016 (ip)); 8 of 8 (dose: 32.0 mg/kg/injection, schedule: Q03HX024 (ip)); 7 of 8, 7 of 7, 8 of 8 under setting [3]; 5 of 8, 7 of 8, 8 of 8 under setting [4]; 8 of 8 (dose: 64.0 mg/kg/injection, schedule: Q01DX009 (sc)). Besides, the survivor count was 8 of 8 (dose: 64.0 mg/kg/injection, schedule: Q03HX016 (ip)); 8 of 8 (dose: 64.0 mg/kg/injection, schedule: Q03HX024 (ip)); 8 of 8 (dose: 64.0 mg/kg/injection, schedule: Q04DX003 (ip)); 8 of 8 (dose: 64.0 mg/kg/injection, schedule: Q04DX003 (sc)); 8 of 8 (dose: 64.0 mg/kg/injection, schedule: Q08DX002 (ip)); 3 of 8 and 8 of 8 under setting [5]. The survivor count is, setting by setting: (dose: 128.0 mg/kg/injection, schedule: Q01DX009 (sc)) 8 of 8; under setting [6], 8 of 8; (dose: 128.0 mg/kg/injection, schedule: Q03HX024 (ip)) 8 of 8; (dose: 128.0 mg/kg/injection, schedule: Q04DX003 (ip)) 8 of 8; (dose: 128.0 mg/kg/injection, schedule: Q04DX003 (sc)) 8 of 8; (dose: 128.0 mg/kg/injection, schedule: Q08DX002 (ip)) 8 of 8. For the same compound, the survivor count is 8 of 8 (dose: 256.0 mg/kg/injection, schedule: Q04DX003 (ip)); 8 of 8 (dose: 256.0 mg/kg/injection, schedule: Q04DX003 (oral)); 8 of 8 (dose: 256.0 mg/kg/injection, schedule: Q04DX003 (sc)); 8 of 8 (dose: 256.0 mg/kg/injection, schedule: Q08DX002 (ip)); 8 of 8 (dose: 512.0 mg/kg/injection, schedule: Q04DX003 (ip)); 8 of 8 (dose: 512.0 mg/kg/injection, schedule: Q04DX003 (oral)). Further, the survivor count (dose: 512.0 mg/kg/injection, schedule: Q04DX003 (sc)) is 8 of 8; the survivor count (dose: 512.0 mg/kg/injection, schedule: Q08DX002 (ip)) is recorded as 8 of 8; the survivor count (dose: 1024.0 mg/kg/injection, schedule: Q04DX003 (ip)) is listed as 8 of 8; the survivor count (dose: 1024.0 mg/kg/injection, schedule: Q04DX003 (oral)) is recorded as 8 of 8; the survivor count (dose: 1024.0 mg/kg/injection, schedule: Q04DX003 (sc)) was 8 of 8; the survivor count (dose: 1024.0 mg/kg/injection, schedule: Q08DX002 (ip)) is given as 8 of 8. Further, the survivor count (dose: 2048.0 mg/kg/injection, schedule: Q04DX003 (oral)) is reported as 8 of 8.

In the case of `Nc1nc(=S)c2ncn(C3CC(O)C(CO)O3)c2[nH]1` (stereo unspecified), the survivor count is listed as 8 of 8 (dose: 6.0 mg/kg/injection, schedule: Q01DX005 (oral)); 8 of 8 (dose: 12.0 mg/kg/injection, schedule: Q01DX005 (oral)); 8 of 8 (dose: 24.0 mg/kg/injection, schedule: Q01DX005 (oral)); 8 of 8 (dose: 48.0 mg/kg/injection, schedule: Q01DX005 (oral)); 8 of 8 (dose: 60.0 mg/kg/injection, schedule: Q08DX002 (oral)); 8 of 8 (dose: 96.0 mg/kg/injection, schedule: Q01DX005 (oral)). Also, the survivor count is 8 of 8 (dose: 120.0 mg/kg/injection, schedule: Q08DX002 (oral)); 8 of 8 (dose: 240.0 mg/kg/injection, schedule: Q08DX002 (oral)); 8 of 8 (dose: 480.0 mg/kg/injection, schedule: Q08DX002 (oral)); 8 of 8 (dose: 960.0 mg/kg/injection, schedule: Q08DX002 (oral)).

Turning to `O=c1cnn(C2OC(CO)C(O)C2O)c(=O)[nH]1` (stereo unspecified), the survivor count is, setting by setting: under setting [1], 8 of 8; under setting [2], 8 of 8; under setting [3], 8 of 8; under setting [4], 8 of 8; (dose: 128.0 mg/kg/injection, schedule: Q01DX009 (ip)) 8 of 8; under setting [5], 8 of 8. Moreover, the survivor count under setting [6] is listed as 8 of 8; the survivor count (dose: 128.0 mg/kg/injection, schedule: Q03HX016 (oral)) was 8 of 8; the survivor count (dose: 256.0 mg/kg/injection, schedule: Q01DX009 (ip)) is recorded as 8 of 8; the survivor count (dose: 256.0 mg/kg/injection, schedule: Q01DX009 (oral)) is 8 of 8; the survivor count (dose: 256.0 mg/kg/injection, schedule: Q03HX016 (ip)) is on record as 7 of 8; the survivor count (dose: 256.0 mg/kg/injection, schedule: Q03HX016 (oral)) was 7 of 8. For the same compound, the survivor count is given as 7 of 7 (dose: 512.0 mg/kg/injection, schedule: Q03HX016 (ip)); 8 of 8 (dose: 512.0 mg/kg/injection, schedule: Q03HX016 (oral)); 7 of 7 (dose: 1024.0 mg/kg/injection, schedule: Q03HX016 (ip)); 6 of 8 (dose: 1024.0 mg/kg/injection, schedule: Q03HX016 (oral)); 6 of 8 (dose: 2048.0 mg/kg/injection, schedule: Q03HX016 (ip)); 5 of 8 (dose: 2048.0 mg/kg/injection, schedule: Q03HX016 (oral)).
